From paper PMC4649535
No constants are given. Whether binding was seen depends on the method and setting. For part of these data: Binding seen in cells or lysates may run through a third protein. Some entries that bind do so weakly or less than the wild type. For part of these data: Sequences can lack the tags named with a protein. Each block holds one binder with its values, some of them ahead of it.

Experiments:
[1] = target: T1, Arrest defective 1 (ARD1), full-length human, yeast two-hybrid bait (human) (UniProt P41227); experiment: two-hybrid; yeast two-hybrid screen of a human liver cDNA library with full-length human ARD1 as bait; selection with three reporters
T1 sequence: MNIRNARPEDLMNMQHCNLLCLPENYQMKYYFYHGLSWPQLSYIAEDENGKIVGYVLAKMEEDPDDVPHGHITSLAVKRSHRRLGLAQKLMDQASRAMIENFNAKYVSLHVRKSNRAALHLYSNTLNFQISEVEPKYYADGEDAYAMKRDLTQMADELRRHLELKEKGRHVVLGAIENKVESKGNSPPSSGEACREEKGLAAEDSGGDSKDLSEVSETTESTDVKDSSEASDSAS

[2] = target: T2, Flag-MSRA (human) (UniProt Q9UJ68); experiment: co-IP; HEK293T cotransfected with pARD1 and pFlag-MSRA; lysates immunoprecipitated with anti-Flag, immunoblotted for ARD1 and Flag-MSRA
T2 sequence: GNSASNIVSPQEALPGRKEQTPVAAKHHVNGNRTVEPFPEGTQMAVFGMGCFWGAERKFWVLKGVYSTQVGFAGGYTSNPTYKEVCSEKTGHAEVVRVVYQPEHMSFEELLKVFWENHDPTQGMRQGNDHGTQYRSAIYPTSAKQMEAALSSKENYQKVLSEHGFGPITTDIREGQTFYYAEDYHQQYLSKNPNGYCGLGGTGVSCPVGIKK

[3] = target: T3, glutathione S-transferase-tagged MSRA (GST-MSRA) (human) (UniProt Q9UJ68); experiment: pull-down; GST pull-down: 1 mg GST-MSRA and 0.5 mg His-ARD1 in 25 mM HEPES pH 7.5, 150 mM KCl, 12.5 mM MgCl2, 20 uM ZnCl2, 5 mM DTT, 0.1% NP40, 10% glycerol, 4 °C, 4 h; glutathione-affinity beads; immunoblot; both purified
T3 sequence: T2 sequence

[4] = target: T4, ARD1 expressed from pARD1 (pcDNA) (human) (UniProt P41227); experiment: co-IP; HEK293T cotransfected with ARD1 and MSRA plasmids; antibodies for immunoprecipitation and immunoblotting exchanged relative to Figure 1a
T4 sequence: T1 sequence

[5] = target: T5, endogenous ARD1 (human (endogenous in HEK293T and A549)) (UniProt P41227); experiment: co-IP; endogenous proteins; HEK293T or A549 lysates immunoprecipitated with anti-ARD1, MSRA immunoblotted
T5 sequence: T1 sequence

binding [1]: binds
B1: MSRA amino acids 132-235, two-hybrid library clone (domain or fragment, UniProt Q9UJ68-1 132-235)
chain: ELLKVFWENHDPTQGMRQGNDHGTQYRSAIYPTSAKQMEAALSSKENYQKVLSEHGFGPITTDIREGQTFYYAEDYHQQYLSKNPNGYCGLGGTGVSCPVGIKK

binding [2]: binds
B2: ARD1 expressed from pARD1 (pcDNA) (enzyme, UniProt P41227-1 1-235)
chain: T1 sequence

binding [3]: binds
B3: His-tagged ARD1 (His-ARD1) (enzyme, UniProt P41227-1 1-235)
chain: T1 sequence

binding [1]: binds
B4: MSRA amino acids 126-235, two-hybrid library clone (domain or fragment, UniProt Q9UJ68-1 126-235)
chain: EHMSFEELLKVFWENHDPTQGMRQGNDHGTQYRSAIYPTSAKQMEAALSSKENYQKVLSEHGFGPITTDIREGQTFYYAEDYHQQYLSKNPNGYCGLGGTGVSCPVGIKK

binding [4]: binds
B5: Flag-MSRA (enzyme, UniProt Q9UJ68-1 24-235)
chain: T2 sequence

binding [5]: binds
B6: endogenous MSRA (enzyme, UniProt Q9UJ68-1 24-235)
chain: T2 sequence
